Results are given in words; binding and its absence hold for the method and conditions named. Some binding calls cover weakened binding; strength is not graded here.
What follows are binders tested against monkey cMET (Macaca fascicularis, Cynomolgus Macaque) (Cynomolgus Macaque (Macaca fascicularis)) (assay: ELISA, cross-reactivity, NHP (Cynomolgus Macaque) cMET).

| binding | Binder |
| --- | --- |
| binds | F6B1P3D12 (mouse monoclonal anti-cMET antibody) (antibody, V domains shown, Mouse hybridoma antibody (ATCC PTA-125826); also called Mouse P3D12) VH: QVQLQQSGAELAKPGASVKMSCRASGYTFTSYWMHWVKQRPGQGLDWIGYIKPSTDNTEYNQKFKDKATLTADKSSSTAYMQLSSLTSEDSAVYYCARSYGNYPLMDYWGQGTSVTVSS VL: QIVLTQSPAIMSASPGEKVTLTCSASSSVTSNYLYWYQQKPGSSPKLWIYSTSNLASGVPARFSGSGSGTSYSLTISSMEAEDAASYFCHQWSSYPPTFGSGTKLEIKR |
| binds | F6BP2D4 (antibody, V domains shown, Mouse monoclonal antibody) VH: QVQLQQSGAELAKPGASVKMSCKASGYTFTSYWMHWVKQRPGQGLEWIGYINPSTDYIEYNQKFKDKATLTAGKSSSTAYMQLSSLTSEDSAVYYCARSYGNFPLMDYWGQGTSVTVSS VL: QIVLTQSPAIMSASPGEKVTLTCSASSSVSSNYLYWYQQKPGSSPKLWIYSTSNLASGVPVRFSGSGSGTSYSLTISSMEAEDAASYFCHQWSSYPPTFGSGTKLEIKR |
| binds | F6B1P1E2 (antibody, V domains shown, Mouse monoclonal antibody) VH: QVQLQQSGAELAKPGASVKMSCKASGYTFTSYWMHWVKQRPGQGLEWIGYINPSTDYTEYNQKFKDKATLTADKSSTTAYMQLSSLTSEDSAVYYCVRSYGNYPLMDYWGQGTSVTVSS VL: QIVLTQSPAIMSASPGEKVTLTCSASSSVSSNYLYWYHQKPGSSPKLWIYSTSNLASGVPVRFSGSGSGTSYSLTISSMEAEDAASYFCHQWSSYPPTFGSGTKLEIKR |
